For the experiment, the target named is PSMA (form used in the binding assay not stated) (UniProt Q04609). Nature of the experiment: binding assay, method not described.

The chains behind the UniProt entries cited, without tags or fusion partners. Residues count along the entry.
UniProt Q04609, residues 44-750: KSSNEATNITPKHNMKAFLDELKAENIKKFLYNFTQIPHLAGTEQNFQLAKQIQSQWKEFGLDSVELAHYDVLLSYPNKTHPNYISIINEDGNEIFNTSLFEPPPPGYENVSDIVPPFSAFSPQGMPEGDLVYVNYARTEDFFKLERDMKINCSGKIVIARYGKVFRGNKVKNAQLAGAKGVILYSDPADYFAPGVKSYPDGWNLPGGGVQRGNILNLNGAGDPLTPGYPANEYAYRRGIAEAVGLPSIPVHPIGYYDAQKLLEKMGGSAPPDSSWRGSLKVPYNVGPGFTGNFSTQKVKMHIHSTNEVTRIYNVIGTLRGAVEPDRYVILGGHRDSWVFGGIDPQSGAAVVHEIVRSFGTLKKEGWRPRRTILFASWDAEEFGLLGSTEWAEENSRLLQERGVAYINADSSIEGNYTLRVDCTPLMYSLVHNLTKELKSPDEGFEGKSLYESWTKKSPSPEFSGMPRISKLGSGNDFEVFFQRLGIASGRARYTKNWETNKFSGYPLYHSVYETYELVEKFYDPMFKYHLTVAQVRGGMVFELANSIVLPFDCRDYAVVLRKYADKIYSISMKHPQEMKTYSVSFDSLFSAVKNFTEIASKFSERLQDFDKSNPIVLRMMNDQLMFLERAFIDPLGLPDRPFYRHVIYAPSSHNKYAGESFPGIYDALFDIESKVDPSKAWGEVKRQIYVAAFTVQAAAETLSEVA

Substitutions are numbered along the chain they refer to. No constants are given. Whether binding was seen depends on the method and setting. Some entries that bind do so weakly or less than the wild type.

B1: PSMB952 (antibody, V domains shown)
VH: EVQLVESGGGLVQPGGSLRLSCAASGFTFSSYAMSWVRQAPGKGLEWVSAISGGIGSTYYADSVKGRFTISRDNSKNTLWLQMNSLRAEDTAVYYCAKDGVGATPYYFDYWGQGTLVTVSS
VL: QSVLTQPPSVSAAPGQKVTISCSGSSSNIGINYVSWYQQLPGTAPKLLIYDNNKRPSGIPDRFSGSKSGTSATLGITGLQTGDEADYYCGTWDSSLSAVVFGGGTKLTVL
Take B1: the binding result is on record as “binds”.

B2: PSMB956 (antibody, V domains shown)
VH: B1 VH with I55S, W80Y, T91S
VL: B1 VL
As to B2, the binding entry is “binds”.

These data come from patent US20220356266A1.
